Experimental data published in US11884707B2, “Compositions for detection, inhibition and imaging of indoleamine 2, 3-dioxygenase 1 (IDO1) and methods of making and using same” (Regeneron Pharmaceuticals, Inc., priority 2016, dated 2024).
At least one peptide structure holds a part that was inferred or is arguable (an end, a ring closure or a residue). Where a SMILES comes first, the peptide text is derived from it. Bridges are numbered along the chain shown (N, C = ends). Triazole bridges read from a SMILES are 1,4-linked. [ ]: non-standard residue; d: D form. The star is where a group is joined. Biotin = O=C1N[C@H]2[C@H](CS[C@H]2CCCCC(=O)*)N1; Trp(1-Me) = Cn1cc(C[C@H](N)C(=O)O)c2ccccc21; Lys(N3) = [N-]=[N+]=NCCCC[C@H](N)C(=O)O; Phe(4-F) = N[C@@H](Cc1ccc(F)cc1)C(=O)O; AEEEA = NCCOCCOCCOCC(=O)O; Pra = C#CC[C@H](N)C(=O)O

Tested on: 6×His-tagged IDO1 epitopes (Epitope1, Epitope2 and scrambled variants)
Test: Point ELISA to determine orientation of macrocycle binding to synthetic IDO1 epitopes
Design: species or system human
Settings: 2 μM macrocycle immobilized, 2 μM 6×His-tagged epitope; no-epitope background subtracted

SMILES | Orientation of binding on IDO1 epitope (maximum point ELISA signal)
Cn1cc(C[C@@H]2NC(=O)[C@@H](Cc3ccccc3)NC(=O)[C@@H](CCCNC(=N)N)NC(=O)[C@@H](Cc3ccccc3)NC(=O)[C@@H](NC(=O)COCCOCCOCCNC(=O)CCCC[C@@H]3SC[C@@H]4NC(=O)N[C@@H]43)Cc3cn(nn3)CCCC[C@@H](C(N)=O)NC(=O)[C@@H](CO)NC2=O)c2ccccc21 [biotin-PEG3-Cy(frf(Me-Trp)s)] ({Biotin-AEEEA}-[Pra][dF][dR][dF][Trp(1-Me)][dS][Lys(N3)]-NH2; triazole 1-7) | preferential binding to the N-terminal portion of IDO1 Epitope1
CC(C)C[C@H]1NC(=O)[C@@H](CC(N)=O)NC(=O)[C@@H](NC(=O)COCCOCCOCCNC(=O)CCCC[C@@H]2SC[C@@H]3NC(=O)N[C@@H]32)Cc2cn(nn2)CCCC[C@@H](C(N)=O)NC(=O)[C@@H](CCCNC(=N)N)NC(=O)[C@H](Cc2cn(C)c3ccccc23)NC(=O)[C@@H](Cc2c[nH]c3ccccc23)NC1=O [biotin-PEG3-Cy(nlw(Me-Trp)r)] ({Biotin-AEEEA}-[Pra][dN][dL][dW][Trp(1-Me)][dR][Lys(N3)]-NH2; triazole 1-7) | preferential binding to the N-terminal portion of IDO1 Epitope2
NC(=O)[C@@H]1CCCCn2cc(nn2)C[C@H](NC(=O)COCCOCCOCCNC(=O)CCCC[C@@H]2SC[C@@H]3NC(=O)N[C@@H]32)C(=O)N[C@H](CO)C(=O)N2CCC[C@@H]2C(=O)N[C@H](Cc2c[nH]c3ccccc23)C(=O)N[C@H](Cc2c[nH]c3ccccc23)C(=O)N[C@@H](Cc2ccc(F)cc2)C(=O)N1 [biotin-PEG3-Cy(spww(F-Phe))] ({Biotin-AEEEA}-[Pra][dS][dP][dW][dW][Phe(4-F)][Lys(N3)]-NH2; triazole 1-7) | preferential binding to the N-terminal portion of IDO1 Epitope2
